# Screening data

Data taken from PubChem BioAssay AID1159506, deposited by NCATS (2015).

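Luminescence from an EWS-FLI1 target-promoter (NR0B1) reporter, set against a CMV-promoter reporter, two days after silencing single genes in TC32 Ewing sarcoma cells.
Each siRNA was applied at 20 nM.
A z-score of the log NR0B1-over-CMV signal, less the median of siRNAs with the same seed; more negative means a stronger specific loss of the NR0B1 reporter.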

This is part of the screen; most of the strongest results are not listed here.
Sequences are the guide (antisense) strand, without overhang.

| Sequence | target gene | seed-corrected z-score |
|---|---|---|
| `UAGGUGAUCACAUGCAUUC` | SF3B6 | -1.713 |
| `UAUGGGUCUCUGGUAAUAC` | CYP11A1 | -1.014 |
| `UCCUGUGCAAGAACUCGCC` | ICAM3 | 2.113 |
| `UUUAGGCAUCUGGAUCAGG` | TRMT112P6 | 0.05746 |
| `UUCGUGUUCAGAAGAUCUC` | MAGEB17 | -0.07231 |
| `UUCCUGCAUAUGCUCGCUG` | CORT | 1.276 |
| `UUUGUUCUAACUCUUUGAG` | METTL24 | 0.1343 |
| `UUUAGUAUAACAAGGUUCC` | FAM129A | -0.9784 |
| `UCACGGACGAGCUUAUCCC` | SAMD5 | -0.4971 |
| `UUUCAUGCAAGCAUACUCC` | NR6A1 | -0.4322 |
| `UCGGGUUUCUCUAUCAGGG` | SIGLEC5 | 0.008219 |
| `UGUAUUAAAGACCCUAUCC` | OR4C11 | 0.4104 |
| `UAGUCUUCAUAGAUUAUCC` | RGS20 | -0.4121 |
| `UUCCGGAAAACCUCCUUUG` | TOP1MT | 0.0943 |
| `UUCGGUUUGGGUGCUAUCC` | PROB1 | -1.92 |
| `UGUAUGAUAGGGAAACUGG` | PARP6 | -0.7063 |
| `UCAUCUUCAAUCUCGGCUU` | CCDC116 | 0.9188 |
| `UGCUGUAACACCUUGUUUG` | LRRC59 | 0.1608 |
| `UCUCUUUAACUCACCCUGG` | MYL4 | -1.305 |
| `UUCUUGUCAAUGUCUAGAG` | UIMC1 | 0.2046 |
| `AUUCAAUUAAUUUAGCUCU` | ENY2 | -0.2868 |
| `UGAGCUUUUGGACUAUCUG` | TBC1D19 | 0.4757 |
| `UCUAUCACCAGGUGAUAUC` | RPL18P4 | -0.07576 |
| `UUUCCUUCCAUAGGGACAC` | ZC3H12A | 0.2366 |
| `UGAAUAUUCAGAAUCGGGA` | MSRB1 | 0.5928 |
| `UUUGAAUUCUUUCCAGUGC` | SMIM12 | -0.1066 |
| `UUCCUGACAGGAAGACUUG` | RPS2P50 | 1.075 |
| `UAUUUGAGAAUCAAGUUCU` | GTPBP3 | -0.1022 |
| `UAGUGCUGCACAUUCCGGG` | PGLYRP1 | 0.838 |
| `AAAGAUGAGACUGUCAGAG` | SPNS1 | 0.5013 |
| `UUUUGAGUACAAGAGGUGG` | C7orf26 | 0.8337 |
| `UUCUUCAUGAUAGGCAGGG` | POLR2J4 | -0.2636 |
| `AAUUUGAGCACAUUGCAUG` | INTS9 | 0.2186 |
| `UUAUCGAAAAUAGCAUUCG` | RAD51AP2 | 0.16 |
| `UGUCUUAGAAAGGUCACUG` | ADAMTS6 | -1.932 |
| `UCUGGGUUGAUCCCAAUCU` | SLC41A1 | 1.959 |
| `UGAGAUGCGAGGGAAGCAC` | SOWAHC | 1.042 |
| `UUUUCUACAAUUUUCACUC` | SPATA9 | -0.02053 |
| `UAUUAGACAUAGAGUGUUC` | MYNN | -0.5835 |
| `UUCGGUAGAAGUUGUUAUG` | ABHD6 | -0.3009 |
| `UAAGUAACAGAAUGAAUCC` | GSTT2 | 0.3267 |
| `UUAACUAUAAAUACUACGG` | GSC | 0.5428 |
| `UCAGGUCCGGGAAAUUUCG` | CPZ | 0.06948 |
| `UUAGCAUUAGAACUUGUGC` | TTC5 | 0.1367 |
| `UUCCUGAACGUCUCCCAGC` | CENPVP3 | -0.05512 |
| `AUUCUGACAGGUGCAAGGC` | MEGF11 | -0.329 |
| `AACGUGUCAUCAGCAUAGC` | RAB3B | -0.3558 |